The text below walks through data of PubChem BioAssay AID2685 (National Center for Advancing Translational Sciences (NCATS), 2010).

The list shows a part of the results. The main result of the screen is listed elsewhere. These columns were measured beside it and carry no call. Most of these compounds were active or inconclusive in the main read-out, so they are no random draw. The note in brackets gives the kind of curve behind each potency; many fits are weak. Where a SMILES comes first, the peptide text is derived from it. [ ]: non-standard residue; d: D form. The star is where a group is joined. Phe(4-Me) = Cc1ccc(C[CH](N)C(=O)O)cc1; Bz = O=C(c1ccccc1)*

The experiment can be described thus: qHTS Assay for Lipid Storage Modulators in Drosophila S3 Cells.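 As to cell number change: cells counted by Cell Tracker Red CMTPX staining in the red channel.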 The settings on record: BODIPY lipid droplet fluorescence, 18-24 h; for cell number change: measured here: cell count max response, cells fed with added oleic acid. The procedure, abridged:
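Laser-scanning cytometry quantifies lipid droplet accumulation (500–530 nm total intensity; droplet/cell object ratio) in oleic acid-fed (400 uM added) Drosophila S3 cells treated with a concentration series. 20 uM Triacsin C defined 100% inhibition.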

[1] abbreviates: measured here: cell number channel AC50, cells fed with added oleic acid.
[2] abbreviates: measured here: lipid fluorescence (Fed channel) AC50, cells fed with added oleic acid.

Consider `O=C(O)CCCn1cc(NC(=O)COc2ccccc2F)cn1`, for which the cell number change is 23.8%.

Take `CCn1c(SCC(=O)Nc2cccnc2Cl)nnc1-c1ccccc1`: the cell number change was 34.2%. Further, the AC50 under setting [1] was 7.31 µM [rising, partial curve]. Further, the AC50 under setting [2] was 3.26 µM [rising, single point].

Turning to `Cc1ccc(CC(NC(=O)c2ccccc2)C(=O)NC(Cc2ccccc2)C(=O)O)cc1` (centres undefined) (Bz-[Phe(4-Me)]-Phe-OH; configuration not given here), the cell number change is -15.7%. Also, the AC50 under setting [1] is 6.51 µM [falling, single point]. Moreover, the AC50 under setting [2] was 3.66 µM [falling, single point].

As for `COc1ccccc1NS(=O)(=O)c1cc(NC(=O)Nc2ccc(Cl)cc2Cl)ccc1N1CCCCC1`, the cell number change was -9.73%. In addition, the concentration at half-maximal activity (AC50) under setting [2] is 16.4 µM [falling, single point].

On to `O=[N+]([O-])c1ccc(S(=O)(=O)CC(CN2CCOCC2)N2CCOCC2)cc1` (centres undefined), for which the cell number change was -3.73%. Moreover, under setting [1], the half-maximal activity concentration (AC50) is 0.461 µM [falling, full curve]. Besides, the AC50 under setting [2] is 1.84 µM [falling, partial curve].

In the case of `CN(Cc1ccc(Br)s1)C(=O)CNC(=O)c1ccc2c(c1)OCO2`, the cell number change is -21.1%. In addition, under setting [2], the AC50 was 23.1 µM [falling, single point].

For `O=c1[nH]c2ccc(Cl)cc2c(-c2ccccc2)c1SC(=S)N1CCCCC1`, the cell number change is -71.9%. The half-maximal activity concentration (AC50) under setting [1] was 29.1 µM [falling, partial curve]. For the same molecule, the AC50 under setting [2] was 18.4 µM [falling, single point].

On to `COc1ccccc1NC(=O)CCn1c(=S)oc2ccccc21`, for which the cell number change was 18.4%.

Consider `Cn1c(SCc2nc(-c3ccc(Cl)cc3)no2)nnc1-c1ccccc1`, for which the cell number change was determined as 81.8%. Also, the AC50 under setting [1] is 6.51 µM [rising, partial curve]. Under setting [2], the concentration at half-maximal activity (AC50) is 6.51 µM [rising, single point].

As for `N#Cc1c(NC(=O)CSc2nc3ccccc3s2)sc2c1CCCC2`, the AC50 by setting is: under setting [1], 2.91 µM [rising, partial curve]; under setting [2], 9.2 µM [rising, partial curve, poor fit].

On to `CC(=O)Oc1ccc(/C=C(\NC(=O)c2ccco2)C(=O)Nc2ccc(C(C)=O)cc2)cc1`, for which the cell number change was -14.5%. Also, under setting [1], the AC50 is 2.06 µM [falling, partial curve, poor fit].

On to `CC1=C/C(=N\OS(=O)(=O)c2ccccc2)C=CC1=O`, for which the cell number change is -71.3%. For the same molecule, the concentration at half-maximal activity (AC50) under setting [1] is 1.64 µM [falling, full curve]. Also, the AC50 under setting [2] was 1.16 µM [falling, full curve].

`COc1ccccc1CNC(=O)C12CC3CC(CC(C3)C1)C2`: the cell number change is -7.25%. In addition, the half-maximal activity concentration (AC50) under setting [2] is 0.58 µM [falling, single point].

For the molecule `CC(CNC(=O)C1CCCCC1C(=O)O)c1ccccc1` (centres undefined), the cell number change was 1.08%.

For `CCc1noc(C)c1C(=O)N1CCN(S(=O)(=O)c2c(C)c(C)cc(C)c2C)CC1`, the cell number change is -1.59%. Besides, the half-maximal activity concentration (AC50) under setting [1] was 5.8 µM [falling, single point].

On to `CC(C)Nc1ccc(C(CC(N)=O)NC(=O)Cc2ccc(Br)cc2)cc1[N+](=O)[O-]` (centres undefined), for which the cell number change came out at 12.7%. The concentration at half-maximal activity (AC50) under setting [2] was 18.4 µM [rising, single point].

Turning to `Cc1cc(C)c2nc(C(F)(F)F)nc(N3CCN(C(=O)c4ccco4)CC3)c2c1`, the cell number change is -36.8%. For the same molecule, the concentration at half-maximal activity (AC50) under setting [1] was 2.06 µM [falling, full curve]. Moreover, under setting [2], the AC50 is 6.51 µM [falling, partial curve, poor fit].

For `CC(OC(=O)CCN1C(=O)C2CC=CCC2C1=O)C(=O)Nc1cccc(C#N)c1` (centres undefined), the cell number change turned out to be 19.3%.

In the case of `CCCN(CC(=O)Nc1ccccc1OC)C(=O)CCC(=O)c1ccc(OCC)cc1`, the cell number change was -13.8%. In addition, the concentration at half-maximal activity (AC50) under setting [2] was 4.11 µM [falling, partial curve].

`O=C(Cc1cccs1)Nc1ccc(N2CCOCC2)cc1`: the cell number change was -0.0925%. For the same molecule, the half-maximal activity concentration (AC50) under setting [2] is 0.116 µM [falling, single point].

For the molecule `O=C(COc1ccc(Cl)cc1Cl)NC(=O)NC1CCCC1`, the cell number change turned out to be 20.1%. Further, the AC50 under setting [1] was 1.03 µM [rising, full curve, poor fit].

As for `COc1ccc(C(=O)NC2CCCc3ccccc32)cc1S(=O)(=O)N1CCOCC1` (centres undefined), the AC50 under setting [1] was 1.3 µM [rising, single point].

For `COc1ccc(OC)c(S(=O)(=O)N(C)CC(=O)Nc2ccc3c(c2)OCO3)c1`, the cell number change was -8.67%. Further, the AC50 under setting [2] was 0.259 µM [rising, partial curve].

For the molecule `CCN1C(=O)CC(NNC(=O)c2ccc(Cl)cc2)C1=O` (centres undefined), the half-maximal activity concentration (AC50) under setting [2] was 18.4 µM [rising, single point].

With `O=C1CC(Cc2ccccc2)C(=O)N1c1ccc(Cl)cn1` (centres undefined), the cell number change was determined as 9.2%. For the same molecule, the half-maximal activity concentration (AC50) under setting [2] is 29.1 µM [rising, single point].

Turning to `CCOc1ccc(Cc2c(Cl)nc(SC)nc2N(C)C)cc1`, the cell number change was -8.99%. Further, under setting [2], the half-maximal activity concentration (AC50) is 16.4 µM [rising, single point].

For `CCOC(=O)C(CCOc1cccc(CC)c1)C(=O)OCC`, the cell number change came out at 13%.

Consider `CC1CCCN(C(=O)c2ccc3c(c2NCCO)C(=O)c2ccccc2C3=O)C1` (centres undefined), for which the cell number change is -51.7%. Moreover, the AC50 under setting [1] is 29.1 µM [falling, single point].

`CC1=C(C(=O)Nc2ccccc2)C(c2ccco2)C(C#N)=C(SCC(=O)OC(C)C)N1` (centres undefined): the cell number change was -8.7%.

With `Cc1occc1C(=O)N/N=C/C1=C(N2CCOCC2)C(=C\c2ccc(Cl)cc2Cl)/CC1`, the cell number change was -0.669%. In addition, the half-maximal activity concentration (AC50) under setting [2] is 16.4 µM [falling, single point].

Consider `CCOc1ncccc1C(=O)Nc1ccc2c(c1)OCCCO2`, for which the cell number change was 79.1%. In addition, the AC50 under setting [1] was 10.3 µM [rising, partial curve].

Consider `CCn1c(NCc2cc(OC)ccc2OC)nc2ccccc21`, for which the cell number change is -0.0288%.

On to `CC1CN(Cc2c(O)ccc3c2oc(=O)c2ccccc23)CC(C)O1` (centres undefined), for which the cell number change is 30.6%. The half-maximal activity concentration (AC50) under setting [1] was 29.1 µM [rising, single point]. In addition, the AC50 under setting [2] was 29.1 µM [rising, single point].

Regarding `O=[N+]([O-])c1cc(-c2nc(-c3ccncc3)no2)ccc1Cl`, the cell number change is -26.3%. Besides, the AC50 under setting [2] is 0.517 µM [falling, partial curve, poor fit].

Turning to `CC1C=CCC2C(=O)N(c3ccc(OC(=O)c4cccs4)cc3)C(=O)C12` (centres undefined), the cell number change worked out at 11.3%. The concentration at half-maximal activity (AC50) under setting [1] was 0.82 µM [falling, single point].

As to `CCNc1nc(SC(C)C(=O)OC)nc(N(C)C)n1` (centres undefined), the cell number change came to 64.4%.

As to `CC(C)CN(C(=O)COC(=O)C1c2ccccc2Oc2ccccc21)C1CCS(=O)(=O)C1` (centres undefined), the cell number change was found to be 30%. For the same molecule, the AC50 under setting [2] is 6.51 µM [rising, single point].

For `CCCS(=O)(=O)N1CCN(C(=O)c2cccc(OC)c2)CC1`, the cell number change is 1.87%. For the same molecule, the AC50 under setting [2] was 3.26 µM [rising, single point].
